Tested on: HEK293T cells
Test: Drug sensitivity assay (CellTiter-Glo viability) with or without MLN4924 pretreatment
Format: cell-based
Details: Homo sapiens, HEK-293T, 72 h, read-out: Cellular assays EC50 [nM]
Procedure: HEK293T–Cas9 cells were resuspended at 0.15 × 10^6 ml^−1 treated with DMSO or 100 nM MLN4924 and plated on 384-well plates. After 2 h, the indicated drugs were dispensed with a D300 digital dispenser (Tecan). After 3 days of drug exposure, cell viability was assessed using the CellTiter-Glo luminescent assay (Promega, G7572) on an CLARIOstar Plus, MARS 3.4 (BMG LabTech). Cell viabilities were calculated relative to DMSO controls.

CCc1cnn2c(NCc3ccc[n+]([O-])c3)cc(N3CCCC[C@H]3CCO)nc12 [Dinaciclib]
EC50: 17 nM

Reference: PMC10746543, “Design principles for cyclin K molecular glue degraders” (Nature Chemical Biology, 2023)
